# Experimental data as given in the supplement of paper PMC8728848.
# The list shows a part of the results.
# B1: Gs78B-bfa-542-29-542 (Bacteroides fragilis) (protein)
# chain: SEDINRNPLLPTKEDEKMDGVIYGAYLPNLEKSVIPIGTASESTEPVNRYQIGVNLAGDAWAGYMSPRDNKFNGSKNFTNYFMYENWVNYVYSFMVTDVYSPWMQIKRISQDEGTRNDEIYALAQIIKIAALHRTTDMFGPIPYSQVGKGSFKVAYDSQESVYRSFLKELEEAVQTLDDYSNKSKEVLPAFDIVYNGDVNKWMRFANSLMLRLAIRVRFADAGLAKEYAEKAVKHPAGLINSKELAAQMGKGAGLQMKNPLKVINEEYNDTRMGATIYSYLAGYNDARAAVYFVKNNGFKAVRCGIAKSGDAYNGFTRPNVHEDDPLYWMKASEVCFLKAEGALAGFDMGGSAGDFYNAGIRMSFSENGLDNSSAETYLKDSTRKPANYTDTSNGELSANAPSSITIRWENGATEEEKLERIITQKYLAIFPNGQEAWTEWRRTGYPRQIVVAENKTNSAVLIGNGYDLGGVRRLPYPRTEYEQNGENLHNAISQYLGGVDNAATKVWWDKKSK
# Experiments:
# Test in all cases: glycan array binding signal (z-score within array); higher = stronger binding
# Conditions in all cases: glycan notation: IUPAC condensed, linker removed
# Fuc(a1-3)GlcNAc = target: Fuc(a1-3)GlcNAc
# How it was run: (§1)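 The binding signal is a Z-score computed within each array and averaged over linkers. Arrays of the same protein sequence at different concentrations or buffers were also averaged together. Data originate from 3228 arrays in the Consortium for Functional Glycomics database, kept only where the protein sequence was available.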
# [1] = target: Fuc(a1-3)[Gal(b1-4)]Glc6S
# How it was run: as §1
# [2] = target: Fuc(a1-3)[Gal(b1-4)]GlcNAc
# How it was run: as §1
# [3] = target: Fuc(a1-3)[Gal(b1-4)]GlcNAc(b1-2)Man
# How it was run: as §1
# [4] = target: Fuc(a1-3)[Gal(b1-4)]GlcNAc(b1-2)Man(a1-3)[Fuc(a1-3)[Gal(b1-4)]GlcNAc(b1-2)Man(a1-6)]Man(b1-4)GlcNAc(b1-4)GlcNAc
# How it was run: as §1
# [5] = target: Fuc(a1-3)[Gal(b1-4)]GlcNAc(b1-2)Man(a1-3)[Fuc(a1-3)[Gal(b1-4)]GlcNAc(b1-2)Man(a1-6)]Man(b1-4)GlcNAc(b1-4)[Fuc(a1-6)]GlcNAc
# How it was run: as §1
# [6] = target: Fuc(a1-3)[Gal(b1-4)]GlcNAc(b1-3)Gal(b1-3)[Fuc(a1-4)]GlcNAc
# How it was run: as §1
# [7] = target: Fuc(a1-3)[Gal(b1-4)]GlcNAc(b1-3)Gal(b1-4)[Fuc(a1-3)]GlcNAc
# How it was run: as §1
# [8] = target: Fuc(a1-3)[Gal(b1-4)]GlcNAc(b1-3)Gal(b1-4)[Fuc(a1-3)]GlcNAc(b1-3)Gal(b1-4)[Fuc(a1-3)]GlcNAc
# How it was run: as §1
# [9] = target: Fuc(a1-3)[Gal(b1-4)]GlcNAc(b1-3)GalNAc
# How it was run: as §1
# [10] = target: Fuc(a1-3)[Gal(b1-4)]GlcNAc(b1-6)GalNAc
# How it was run: as §1
# [11] = target: Fuc(a1-3)[Gal(b1-4)]GlcNAc(b1-6)[Gal(b1-3)GlcNAc(b1-3)]Gal(b1-4)Glc
# How it was run: as §1
# [12] = target: Fuc(a1-3)[Gal(b1-4)]GlcNAc6S
# How it was run: as §1
# [13] = target: Fuc(a1-3)[Gal3S(b1-4)]Glc
# How it was run: as §1
# [14] = target: Fuc(a1-3)[Gal3S(b1-4)]GlcNAc
# How it was run: as §1
# [15] = target: Fuc(a1-3)[Gal3S(b1-4)]GlcNAc6S
# How it was run: as §1
# [16] = target: Fuc(a1-3)[GalNAc(b1-4)]GlcNAc
# How it was run: as §1
# [17] = target: Fuc(a1-3)[GalNAc(b1-4)]GlcNAc6S
# How it was run: as §1
# Fuc(a1-4)GlcNAc = target: Fuc(a1-4)GlcNAc
# How it was run: as §1
# Fuc(b1-3)GlcNAc = target: Fuc(b1-3)GlcNAc
# How it was run: as §1
# Gal(a1-2)Gal = target: Gal(a1-2)Gal
# How it was run: as §1
# Gal(a1-3)Gal = target: Gal(a1-3)Gal
# How it was run: as §1
# Gal(a1-3)Gal(b1-3)GlcNAc = target: Gal(a1-3)Gal(b1-3)GlcNAc
# How it was run: as §1
# [18] = target: Gal(a1-3)Gal(b1-3)GlcNAc(b1-2)Man
# How it was run: as §1
# [19] = target: Gal(a1-3)Gal(b1-3)GlcNAc(b1-2)Man(a1-3)[Gal(a1-3)Gal(b1-3)GlcNAc(b1-2)Man(a1-6)]Man(b1-4)GlcNAc(b1-4)GlcNAc
# How it was run: as §1
# [20] = target: Gal(a1-3)Gal(b1-3)GlcNAc(b1-3)GalNAc
# How it was run: as §1
# [21] = target: Gal(a1-3)Gal(b1-3)GlcNAc(b1-6)GalNAc
# How it was run: as §1
# [22] = target: Gal(a1-3)Gal(b1-3)[Fuc(a1-4)]GlcNAc(b1-2)Man(a1-3)[Gal(a1-3)Gal(b1-3)[Fuc(a1-4)]GlcNAc(b1-2)Man(a1-6)]Man(b1-4)GlcNAc(b1-4)GlcNAc
# How it was run: as §1
# Gal(a1-3)Gal(b1-4)Glc = target: Gal(a1-3)Gal(b1-4)Glc
# How it was run: as §1
# Gal(a1-3)Gal(b1-4)GlcNAc = target: Gal(a1-3)Gal(b1-4)GlcNAc
# How it was run: as §1
# [23] = target: Gal(a1-3)Gal(b1-4)GlcNAc(b1-2)Man
# How it was run: as §1
# [24] = target: Gal(a1-3)Gal(b1-4)GlcNAc(b1-2)Man(a1-3)[Gal(a1-3)Gal(b1-4)GlcNAc(b1-2)Man(a1-6)]Man(b1-4)GlcNAc(b1-4)GlcNAc
# How it was run: as §1
# [25] = target: Gal(a1-3)Gal(b1-4)GlcNAc(b1-3)GalNAc
# How it was run: as §1
# [26] = target: Gal(a1-3)Gal(b1-4)GlcNAc(b1-6)GalNAc
# How it was run: as §1
# [27] = target: Gal(a1-3)Gal(b1-4)[Fuc(a1-3)]GlcNAc
# How it was run: as §1
# [28] = target: Gal(a1-3)Gal(b1-4)[Fuc(a1-3)]GlcNAc(b1-2)Man(a1-3)[Gal(a1-3)Gal(b1-4)[Fuc(a1-3)]GlcNAc(b1-2)Man(a1-6)]Man(b1-4)GlcNAc(b1-4)GlcNAc
# How it was run: as §1
# Gal(a1-3)GalNAc = target: Gal(a1-3)GalNAc
# How it was run: as §1
binder,measurement,setting,value
B1,glycan array binding signal (z-score),Fuc(a1-3)GlcNAc,-0.813
same,glycan array binding signal (z-score),[1],0.092
same,glycan array binding signal (z-score),[2],-0.727
same,glycan array binding signal (z-score),[3],-0.619
same,glycan array binding signal (z-score),[4],1.04
same,glycan array binding signal (z-score),[5],0.524
same,glycan array binding signal (z-score),[6],-0.811
same,glycan array binding signal (z-score),[7],0.211
same,glycan array binding signal (z-score),[8],-0.127
same,glycan array binding signal (z-score),[9],0.574
same,glycan array binding signal (z-score),[10],0.625
same,glycan array binding signal (z-score),[11],1.76
same,glycan array binding signal (z-score),[12],-0.74
same,glycan array binding signal (z-score),[13],0.204
same,glycan array binding signal (z-score),[14],-0.79
same,glycan array binding signal (z-score),[15],1.34
same,glycan array binding signal (z-score),[16],2.08
same,glycan array binding signal (z-score),[17],2.67
same,glycan array binding signal (z-score),Fuc(a1-4)GlcNAc,-0.834
same,glycan array binding signal (z-score),Fuc(b1-3)GlcNAc,-0.804
same,glycan array binding signal (z-score),Gal(a1-2)Gal,-0.171
same,glycan array binding signal (z-score),Gal(a1-3)Gal,-0.783
same,glycan array binding signal (z-score),Gal(a1-3)Gal(b1-3)GlcNAc,0.194
same,glycan array binding signal (z-score),[18],0.439
same,glycan array binding signal (z-score),[19],0.647
same,glycan array binding signal (z-score),[20],0.171
same,glycan array binding signal (z-score),[21],0.533
same,glycan array binding signal (z-score),[22],4.3
same,glycan array binding signal (z-score),Gal(a1-3)Gal(b1-4)Glc,-0.167
same,glycan array binding signal (z-score),Gal(a1-3)Gal(b1-4)GlcNAc,-0.138
same,glycan array binding signal (z-score),[23],0.182
same,glycan array binding signal (z-score),[24],2.05
same,glycan array binding signal (z-score),[25],0.878
same,glycan array binding signal (z-score),[26],-0.331
same,glycan array binding signal (z-score),[27],-0.047
same,glycan array binding signal (z-score),[28],1.42
same,glycan array binding signal (z-score),Gal(a1-3)GalNAc,-0.126

# Retrieved one by one from the list above, 2 records:
binder,measurement,setting,value
B1,glycan array binding signal (z-score),[2],-0.727
same,glycan array binding signal (z-score),[10],0.625
